# Laboratory results: patent US7259142B2 (The United States of America, represented by the Secretary, …, priority 1999, dated 2007)
# Experiments:
# [1] = general procedure: Fmoc solid-phase peptide synthesis; PAL amide resin (0.53 mmol/g); settings: whole synthesis, overall, scale of the general procedure 0.1 mmol
# [2] = general procedure: Fmoc solid-phase peptide synthesis; PAL amide resin; settings: whole synthesis, scale 0.1 mmol
Substance,isolated yield [1],isolated yield [2] [% yield]
cyclo(CH2CO-Adi^1-Leu^2-Tyr^3-Glu^4-Asn^5-Val^6-Gly^7-Met^8-Tyr^9-Cys)-amide,overall yield of 40%,
cyclo(CH2CO-Gla^1-Leu^2-Tyr^3-Glu^4-Asn^5-Val^6-Gly^7-Met^8-Tyr^9-Cys)-amide,,30
